The text below walks through data of patent US9169463B2, “Stem cell for therapeutic use which is derived from human monocyte, and method for inducing same” (OTSUKA PHARMACEUTICAL CO., LTD., priority 2008, dated 2015).

Some compounds share one wording; it may come from a single statement.

For the series, the system named is peripheral blood monocytes. Description: Comparison of stem cell-inducing activities of various gangliosides (viable cells, CellTiter-Glo). The note with it: second week of culture. In kind it is cell-based, human. As to the method: More specifically, gangliosides were added to a culture medium at a final concentration of 100 μg/ml, and peripheral blood monocytes were cultured.
rhM-CSF was added thereto at a final concentration of 25 ng/ml. Then, the number of viable cells in the second week of culture was quantified as luciferase activity using CellTiter-Glo (Promega).
For orientation: In ATP-based viability assays light output follows the ATP content of the culture.
“aNeu5Ac(2-3)bDGalp(1-3)bDGalNAc(1-4)[aNeu5Ac(2-3)]bDGalp(1-4)bDGlcp(1-1)Cer [GD1a]”: the “cell morphology (FIG. 4)” value is “no difference in cell morphology was observed”. The same measure for “aNeu5Ac(2-3)bDGalp(1-3)bDGalNAc(1-4)[aNeu5Ac(2-8)aNeu5Ac(2-3)]bDGalp(1-4)bDGlcp(1-1)Cer [GT1b]”: “no difference in cell morphology was observed”; for “bDGalp(1-3)bDGalNAc[aNeu5Ac(2-3)]bDGalp(1-4)bDGlcp(1-1)Cer [GM1]”: “no difference in cell morphology was observed”.
